The values below come from PMC3218954.

Chains of the proteins cited; added tags and fusions are not shown. Lines headed by an entry give the natural chain unless they say otherwise; changes in a name come on top.
UniProt P17676: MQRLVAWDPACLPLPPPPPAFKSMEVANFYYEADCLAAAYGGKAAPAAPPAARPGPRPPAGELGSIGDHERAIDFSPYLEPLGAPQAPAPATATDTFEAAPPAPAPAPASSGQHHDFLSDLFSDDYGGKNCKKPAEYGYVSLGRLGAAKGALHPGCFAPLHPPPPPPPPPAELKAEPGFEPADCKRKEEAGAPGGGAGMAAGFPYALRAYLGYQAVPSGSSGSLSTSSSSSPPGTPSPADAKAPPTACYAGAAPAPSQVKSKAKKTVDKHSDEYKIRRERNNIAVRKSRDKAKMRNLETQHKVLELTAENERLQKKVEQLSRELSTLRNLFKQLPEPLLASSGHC
UniProt P15976: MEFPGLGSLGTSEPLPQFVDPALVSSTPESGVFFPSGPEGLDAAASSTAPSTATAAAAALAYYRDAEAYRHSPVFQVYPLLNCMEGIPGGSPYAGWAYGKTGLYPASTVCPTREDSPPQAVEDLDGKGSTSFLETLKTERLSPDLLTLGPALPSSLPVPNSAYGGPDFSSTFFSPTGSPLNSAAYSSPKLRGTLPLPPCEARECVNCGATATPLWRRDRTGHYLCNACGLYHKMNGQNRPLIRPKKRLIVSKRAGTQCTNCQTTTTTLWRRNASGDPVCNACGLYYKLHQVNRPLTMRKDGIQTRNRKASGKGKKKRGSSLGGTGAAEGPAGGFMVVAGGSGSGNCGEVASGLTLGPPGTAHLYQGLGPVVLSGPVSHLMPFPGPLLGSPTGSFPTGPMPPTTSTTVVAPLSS

The exact form of at least one protein or probe is not confirmed. At least one result comes from cells or an extract, where the contact may be indirect. For some of these results: No signal at the amounts used counts as a negative.

For series [1], the target named is C/EBP-beta (Homo sapiens (MCF7 cells)) (UniProt P17676). The experiment in a line: EMSA supershift. The conditions noted are these: MCF7 nuclear extract, anti-C/EBP-beta, cold self competes; EMSA: 20 mM HEPES pH 7.4, 0.1 mM EDTA, 75 mM KCl, 2.5 mM MgCl2, 1 mM DTT, 5% glycerol, 0.05 mg/mL poly(dI:dC), 5 ug nuclear extract, room temperature; protein in an extract; label: 32P 5' end.

The target is the same in series [2]. Kind of series: competition with a labelled probe. The conditions noted are these: MCF7 nuclear extract, excess cold mutant vs labeled N1; EMSA: 20 mM HEPES pH 7.4, 0.1 mM EDTA, 75 mM KCl, 2.5 mM MgCl2, 1 mM DTT, 5% glycerol, 0.05 mg/mL poly(dI:dC), 5 ug nuclear extract, room temperature; protein in an extract; label: none (cold competitor), 32P when used as probe. For orientation: Mobility shift assays separate free from complexed probe on a gel.

The target of series [3] is GATA-1 (Homo sapiens (MCF7 cells)) (UniProt P15976). The experiment in a line: competition with a labelled probe. The note with it: MCF7 nuclear extract, excess cold mutant vs labeled N3; EMSA: 20 mM HEPES pH 7.4, 0.1 mM EDTA, 75 mM KCl, 2.5 mM MgCl2, 1 mM DTT, 5% glycerol, 0.05 mg/mL poly(dI:dC), 5 ug nuclear extract, room temperature; protein in an extract; label: none (cold competitor), 32P when used as probe.

The target is the same in series [4]. The experiment in a line: EMSA supershift. The conditions noted are these: MCF7 nuclear extract, anti-GATA-1, cold self competes; EMSA: 20 mM HEPES pH 7.4, 0.1 mM EDTA, 75 mM KCl, 2.5 mM MgCl2, 1 mM DTT, 5% glycerol, 0.05 mg/mL poly(dI:dC), 5 ug nuclear extract, room temperature; protein in an extract; label: 32P 5' end.

With “CCTTACCTTTTAGTCTTTCAACAAACT (double strand) [Jab1 -462/-436 CEBP WT]”, the binding result in series [1] is “binds”.

As to “CCTTACCTTTTAGTCTTTCCTGCAAACT (double strand) [Jab1 -462/-436 CEBP Mut (M1)]”, in series [2], the binding result is recorded as “no binding”.

“GGAGTCATTTAAGGTACCTATACCC (double strand) [Jab1 -435/-417 GATA1 M1]”: the binding result in series [3] is on record as “no binding”.

Regarding “AATCATTTATCTCATTTAAGGTACC (double strand) [Jab1 -435/-417 GATA1 WT]”, in series [4], the binding result is “binds”.
